Results are given in words; binding and its absence hold for the method and conditions named. Binding seen in cells or lysates may run through a third protein. Some results given as binding are weak or reduced against the parent protein; the word gives no strength. Sequences can lack the tags named with a protein.
Molecular target: AdhE (Streptococcus pneumoniae), C-terminally FLAG-tagged, ectopic competence-inducible copy in strain SO007 (Streptococcus pneumoniae) (UniProt Q8DNA5)
Assay: co-IP + other: negative-stain electron microscopy

B1: AdhE (Streptococcus pneumoniae), C-terminally FLAG-tagged, ectopic competence-inducible copy in strain SO007 (enzyme, UniProt Q8DNA5 1-890)
chain: MKAMEENMADKKTVTPEEKKLVAEKHVDELVQKALVALEEMRKLNQEQVDYIVAKASVAALDAHGELALHAFEETGRGVFEDKATKNLFACEHVVNNMRHTKTVGVIEEDDVTGLTLIAEPVGVVCGITPTTNPTSTAIFKSLISLKTRNPIVFAFHPSAQESSAHAARIVRDAAIAAGAPENCVQWITQPSMEATSALMNHEGVATILATGGNAMVKAAYSCGKPALGVGAGNVPAYVEKSANIRQAAHDIVMSKSFDNGMVCASEQAVIIDKEIYDEFVAEFKSYHTYFVNKKEKALLEEFCFGVKANSKNCAGAKLNADIVGKPATWIAEQAGFTVPEGTNILAAECKEVGENEPLTREKLSPVIAVLKSESREDGITKARQMVEFNGLGHSAAIHTADEELTKEFGKAVKAIRVICNSPSTFGGIGDVYNAFLPSLTLGCGSYGRNSVGDNVSAINLLNIKKVGRRRNNMQWMKLPSKTYFERDSIQYLQKCRDVERVMIVTDHAMVELGFLDRIIEQLDLRRNKVVYQIFADVEPDPDITTVNRGTEIMRAFKPDTIIALGGGSPMDAAKVMWLFYEQPEVDFRDLVQKFMDIRKRAFKFPLLGKKTKFIAIPTTSGTGSEVTPFAVISDKANNRKYPIADYSLTPTVAIVDPALVLTVPGFVAADTGMDVLTHATEAYVSQMASDYTDGLALQAIKLVFENLESSVKNADFHSREKMHNASTIAGMAFANAFLGISHSMAHKIGAQFHTIHGRTNAILLPYVIRYNGTRPAKTATWPKYNYYRADEKYQDIARMLGLPASTPEEGVESYAKAVYELGERIGIQMNFRDQGIDEKEWKEHSRELAFLAYEDQCSPANPRLPMVDHMQEIIEDAYYGYKERPGRRK
binding: binds
